Source: PubChem BioAssay AID686937 (Drosophila RNAi Screening Center, 2013)
The deposit covers about 23,000 reagents; shown is an unselected part of those with a known target gene and a result. 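Reduced-secretion tags in replicate 1 do not always agree with the z-scores; no criterion for assigning the tags was given.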 Reagents against one gene are numbered here. Not given: the amount of reagent.

- Assay: 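Genes whose loss weakens secretory pathway function in fly cells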 (primary screen)
- Cells: Drosophila S2 cells expressing secreted horseradish peroxidase
- Reagents: long dsRNA against Drosophila genes
- Time to read-out: about 5.5 days (5 days dsRNA, then 12 h reporter induction)
- Conditions: reporter expression induced after 5 days of dsRNA, read 12 h later; inducer not stated
- Measurement: 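After 5 days of dsRNA and 12 h of reporter induction, medium peroxidase read by chemiluminescence and scored as per-plate z-score; higher values mean more reporter released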
- Direction: z-score: higher = more reporter secreted into medium

Gene	reagent no.	z-score, replicate 1	z-score, replicate 2	z-score, replicate 3	z-score, replicate 4
Hrb98DE (Heterogeneous nuclear ribonucleoprotein at 98DE)	1	-0.19	-0.09		
Loxl2 (Lysyl oxidase-like 2)	1	0.34	0.3		
Tmem131 (Transmembrane protein 131)	1	0.35	0.31		
CG15456	1	0.28	0.13		
CG18766	1	0.34	0.45		
CG10466	1	-0.04	-0.03		
CG30334	1	0.51	0.14		
CG12170	1	0.09	0.19	0.35	0.38
Gr77a (Gustatory receptor 77a)	1	0.7	0.27		
pio (piopio)	1	-0.12	-0.26		
JMJD4 (Jumonji domain containing 4)	1	0.38	0.24		
Nle (Notchless)	1	0.21	0.15		
CG10472	1	0.3	0.15		
tomboy40	1	-0.01	0.09		
CG6295	1	0.23	0.35		
Pvf3 (PDGF- and VEGF-related factor 3)	1	0.17	0.14		
Pvf3 (PDGF- and VEGF-related factor 3)	2	0.21	0.34		
Pvf3 (PDGF- and VEGF-related factor 3)	3	0.99	0.48		
Pvf3 (PDGF- and VEGF-related factor 3)	4	0.15	0.13		
eIF3h (eukaryotic translation initiation factor 3 subunit h)	1	0.56	0.56		
TTLL5 (Tubulin tyrosine ligase-like 5)	1	-0.01	0.3		
GstT2 (Glutathione S transferase T2)	1	0.13	0.35		
CG15544	1	0.21	0.18		
Rae1	1	-0.23	-0.46		
Lst (Limostatin)	1	0.15	0.08		
Appl (beta amyloid protein precursor-like)	1	0.09	-0.12		
CG14764	1	-0.4			
CG14764	2	0.13	0.29		
CG14764	3	0.24	0.28		
Lrrk (Leucine-rich repeat kinase)	1	0.4	0.35	0.39	0.33
Lrrk (Leucine-rich repeat kinase)	2	0.33	0.59		
CG15452	1	0.43	0.33		
spn-D (spindle D)	1	-0.09	0.22		

Individual results from the entries so far.
Result of Gr77a (Gustatory receptor 77a) in “z-score, replicate 1”: 0.7
For “z-score, replicate 1”, pio (piopio) is entered as -0.12
GstT2 (Glutathione S transferase T2), z-score, replicate 1: 0.13
Value of Tmem131 (Transmembrane protein 131) in “z-score, replicate 1”: 0.35
